Assay results published in PubChem BioAssay AID2685 (National Center for Advancing Translational Sciences (NCATS), 2010).
The list shows a part of the results. Further columns of the screen follow, without active or inactive calls. The list favours compounds with an active or inconclusive main result. Words in brackets tell the shape of the fitted curve; partial curves, single points and poor fits give uncertain potencies.

Assay: qHTS Assay for Lipid Storage Modulators in Drosophila S3 Cells;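 on cell number change: cells counted by Cell Tracker Red CMTPX staining in the red channel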
Details: BODIPY lipid droplet fluorescence, 18-24 h; for cell number change: measured here: cell count max response, cells fed with added oleic acid
Method in brief: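 Drosophila S3 cells got compounds at several concentrations plus oleic acid (400 uM solution). Laser-scanning cytometry with 488 nm excitation read lipid droplets at 500-530 nm and cells at 575-640 nm. Percent activity was relative to 20 uM Triacsin C.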

[1] = measured here: lipid fluorescence (Fed channel) AC50, cells fed with added oleic acid
[2] = measured here: cell number channel AC50, cells fed with added oleic acid

SMILES | cell number change [%] | AC50 [1] | AC50 [2]
CCOC(=O)N1CCN(C(=S)NC2CCCC2)CC1 | 32.5 | – | –
Cc1ccccc1-c1nnc(SCC(=O)c2c(N)n(C3CC3)c(=O)[nH]c2=O)o1 | -5.7 | 3.66 µM [rising, full curve, poor fit] | –
NS(=O)(=O)c1cccc(NC(=O)Nc2ccc(Cl)cc2)c1 | -9.29 | – | –
Cc1ccc(-c2ocnc2C(=O)N2CCN(C(=O)c3cccs3)CC2)cc1 | – | 5.17 µM [rising, partial curve] | –
CCCCC(=O)NC(=S)NNC(=O)CC#N | 32.7 | – | 16.4 µM [rising, single point]
O=C(CCN1CCCCC1=O)NC1CCCN(Cc2ccc(Cl)cc2)C1 (centres undefined) | -0.54 | 29.1 µM [falling, single point] | –
O=C(Cn1cc(C(F)(F)F)cc(Cl)c1=O)Nc1cccc(S(=O)(=O)N2CCCCC2)c1 | 0.501 | – | 0.164 µM [falling, full curve, poor fit]
COc1ccc(C(=O)N/N=C(/C)c2cccc(NC(=O)c3ccncc3)c2)cc1OC | 5.1 | 29.1 µM [rising, single point] | –
COc1ccc(-c2nc3ccc(C)cc3c(=O)o2)cc1OC | 15.2 | 14.6 µM [falling, single point] | –
Cc1ccc(NC(=O)c2ccc(OC(=O)C(C)Oc3ccc(Cl)cc3C)cc2)cc1 (centres undefined) | – | 6.51 µM [falling, partial curve] | –
CCCN1CCN(C(=O)c2ccc(F)c(S(=O)(=O)N3CCOCC3)c2)CC1 | 6.81 | – | –
Cc1cccc(Nc2ccc(S(=O)(=O)N3CCOCC3)cc2[N+](=O)[O-])c1 | -11.4 | – | –
Cc1ccccc1-c1ccc(Nc2ccc(C(=O)N3CCOCC3)cc2)nn1 | – | – | 6.51 µM [rising, single point]
O=C(O)C1CSC2(c3ccc4c(c3)OCCO4)CCC(=O)N12 (centres undefined) | -40.4 | 4.11 µM [falling, full curve, poor fit] | 0.259 µM [falling, full curve, poor fit]
Cc1oc2ccc(NS(=O)(=O)c3ccc(F)cc3)cc2c1C(=O)O | 15.1 | – | 2.31 µM [rising, partial curve, poor fit]
CCOC(=O)C1CCN(C(=O)CSc2n[nH]c(=O)[nH]c2=O)CC1 | -89.8 | 8.2 µM [falling, partial curve] | 6.51 µM [falling, partial curve]
CCN1CCCC1CNS(=O)(=O)c1ccc(Cl)c(C(F)(F)F)c1 (centres undefined) | – | 29.1 µM [rising, partial curve, poor fit] | –
O=C1C2C3C=CC(C3)C2C(=O)N1CNc1ccc(O)cc1 (centres undefined) | 4.06 | 1.16 µM [falling, single point] | –
CNc1nc(C)c(C(=O)OCC(=O)OC)s1 | -14.2 | 0.517 µM [falling, full curve, poor fit] | –
CCOC(=O)C1=C(C)N[C@@]2(O)c3ccccc3C(=O)[C@@]12O | -13.5 | 3.26 µM [falling, partial curve] | –
Cc1nc2c3cc(F)ccc3n(Cc3ccc(F)cc3)c2s1 | 21.6 | 4.11 µM [falling, single point] | –

SMILES | cell number change [%] | AC50 [1] | AC50 [2]
Cc1c(NC(=O)/C(=C/c2cccs2)c2cccs2)c(=O)n(-c2ccccc2)n1C | 11.5 | 0.0731 µM [rising, full curve] | –
COCCn1c(=NC(=O)/C=C/c2cccs2)sc2cc(NC(C)=O)ccc21 | -22 | 29.1 µM [falling, single point] | –
CC(=O)Oc1ccc(C(=O)O)cc1OC(C)=O | 4.05 | 2.91 µM [rising, single point] | 0.00461 µM [falling, full curve, poor fit]
C=CCn1c(-c2ccccc2OC)n[nH]c1=S | 37.6 | 29.1 µM [rising, single point] | –
Cc1sc2nc3n(c(=O)c2c1C)Cc1ccccc1-3 | 23.8 | 3.26 µM [rising, partial curve] | 2.31 µM [rising, full curve, poor fit]
O=C(CC1NCCNC1=O)Nc1ccc2c(c1)OCCO2 (centres undefined) | -88.5 | 4.11 µM [falling, partial curve] | 29.1 µM [falling, single point]
COc1ccc(NC(=O)/C(C#N)=C/c2ccc(-c3ccc(Cl)c(C(=O)O)c3)o2)cc1 | -11.6 | – | –
N#Cc1ccc2c(c1)C[C@]1(c3ccsc3)Oc3c(c(=O)oc4ccccc34)C2O1 | – | 5.31 µM [rising, single point] | –
COc1ccc(-n2c(-c3ccccc3)nc(=S)c3c2CCCC3)cc1 | -13.4 | – | 0.092 µM [falling, full curve, poor fit]
CC(=O)N1CCN(C(=O)c2ccc(S(=O)(=O)Nc3cccc(C(F)(F)F)c3)cc2)CC1 | 33.2 | 14.6 µM [rising, partial curve] | 32.6 µM [rising, single point]
O=C(CSc1nc2c(c(=O)[nH]1)CCC2)Nc1cccc(Cl)c1 | 7.21 | 29.1 µM [rising, single point] | –
COc1cc(C(=O)NCc2ccc(C)cc2)ccc1OC(F)F | 33.2 | 2.31 µM [rising, partial curve] | 2.91 µM [rising, partial curve]
CC(C)(C)c1ccc(OCC(=O)NNC(=S)NC(=O)c2ccco2)c(Br)c1 | -0.431 | 32.6 µM [rising, single point] | –
Cn1c(COc2ccccc2)nnc1SCC(=O)Nc1ccc(N2CCOCC2)c(Cl)c1 | -51.9 | 4.61 µM [falling, partial curve] | 5.17 µM [falling, full curve]
CCC(Oc1ccccc1)C(=O)Nc1cc(Cl)ccc1-n1cncn1 (centres undefined) | -32.2 | – | –
O=C(COC(=O)/C=C/c1ccc2c(c1)OCO2)NCc1ccccc1 | -20.7 | 6.51 µM [falling, single point] | –
CCc1ccc(NC(=O)c2sc3nc(C)nc(N4CCN(c5ccccn5)CC4)c3c2C)cc1 | 2.7 | 0.231 µM [falling, full curve, poor fit] | –
CCCNC(=O)c1ccccc1NC(=O)c1ccccc1SC | 15.6 | – | –
Cc1c(Cc2ccccc2)sc(/N=C/c2c(O)ccc3ccccc23)c1C(N)=O | 55.7 | 29.1 µM [falling, single point] | 20.6 µM [rising, single point]
C/C(=N\Nc1ccc(C(F)(F)F)cn1)c1ccncc1 | -15.1 | – | –
CS(=O)(=O)N(CC(=O)NCC1CCCO1)c1cc(Cl)ccc1Cl (centres undefined) | -3.61 | 2.59 µM [falling, full curve] | –

SMILES | cell number change [%] | AC50 [1] | AC50 [2]
CC(=O)NC(NC(=S)Nc1ccc(N=Nc2ccccc2)cc1)C(Cl)(Cl)Cl (centres undefined) | -2.64 | 0.58 µM [falling, single point] | –
CC(=O)c1cccc(NC(=S)N2CCC(Cc3ccccc3)CC2)c1 | 0.0795 | – | –
COc1ccc(NC(=O)Nc2ccc(F)cc2F)c(C)c1 | – | 2.06 µM [rising, partial curve] | 1.64 µM [rising, partial curve]
CC(CCc1ccccc1)NC(=O)CCCCCNc1nc(=S)[nH]c2ccccc12 (centres undefined) | 16.5 | 0.164 µM [rising, full curve, poor fit] | 0.146 µM [rising, full curve, poor fit]
COc1cccc(-n2nnc3c(=O)n(C/C=C/c4ccccc4)cnc32)c1 | – | 2.59 µM [rising, single point] | –
CC(=O)Nc1ccc(Nc2c3ccccc3nc3ccccc23)cc1 | -27 | – | 3.26 µM [falling, single point]
CCCCn1c(SCC(=O)Nc2oc(C)c3c(C)n[nH]c(=O)c23)nc2cc(S(N)(=O)=O)ccc21 | 51.7 | 5.8 µM [rising, partial curve] | 3.66 µM [rising, partial curve]
Cn1c(=O)c2c(nc(-n3ccnc3)n2C)n(C)c1=O | – | – | 6.51 µM [rising, single point]
CCOC(=O)c1ccc(S(=O)(=O)N2CCN(C(=O)c3cc4ccccc4o3)CC2)cc1 | -8.23 | – | –
Cc1ccn(CCNC(=O)C2CCC(=O)N(CCc3ccc(Cl)cc3)C2)n1 (centres undefined) | 11.1 | – | –
Cc1nc(SCC(=O)Nc2ccc(OCc3ccccc3)cc2)n[nH]1 | -9.95 | 0.082 µM [rising, full curve, poor fit] | –
O=C(OCN1C(=O)c2ccccc2C1=O)c1cccc(OC(F)F)c1 | 19.7 | 0.326 µM [rising, single point] | –
CCOC(=O)c1cn[nH]c1C(F)(F)F | -9.4 | 0.731 µM [falling, full curve] | –
COc1cc2ncnc(NCc3cccs3)c2cc1OC | -5.51 | 20.6 µM [falling, single point] | –
CC(=O)NCCC1CCN(C(=O)c2cc(COc3ccc(C)nc3)on2)CC1 | -9.92 | 29.1 µM [falling, single point] | –
C/C(=N\Nc1nc2ccccc2[nH]1)c1ccc(Cl)s1 | -6.51 | – | –
Cc1ccccc1CNC(=O)C1CCCN(c2nnc(C)c3c(C)n(-c4ccccc4)nc23)C1 (centres undefined) | 8.87 | – | –
CCn1cc(C(=O)NCc2ccc3c(c2)OCO3)c(=O)c2cc(S(=O)(=O)N(C)C)ccc21 | -31.9 | 16.4 µM [falling, partial curve] | 23.1 µM [falling, single point]
CCCN(C(=O)COC(=O)c1[nH]c(C)c(C(=O)OC)c1C)c1c(N)n(Cc2ccccc2)c(=O)[nH]c1=O | 38.6 | – | 5.17 µM [rising, partial curve]

5 entries already listed, arranged by molar mass, ascending:
SMILES | cell number change [%] | AC50 [1] | AC50 [2]
COc1ccc(NC(=O)Nc2ccc(F)cc2F)c(C)c1 | – | 2.06 µM [rising, partial curve] | 1.64 µM [rising, partial curve]
CC(=O)NCCC1CCN(C(=O)c2cc(COc3ccc(C)nc3)on2)CC1 | -9.92 | 29.1 µM [falling, single point] | –
Cc1ccn(CCNC(=O)C2CCC(=O)N(CCc3ccc(Cl)cc3)C2)n1 (centres undefined) | 11.1 | – | –
CC(CCc1ccccc1)NC(=O)CCCCCNc1nc(=S)[nH]c2ccccc12 (centres undefined) | 16.5 | 0.164 µM [rising, full curve, poor fit] | 0.146 µM [rising, full curve, poor fit]
CCOC(=O)c1ccc(S(=O)(=O)N2CCN(C(=O)c3cc4ccccc4o3)CC2)cc1 | -8.23 | – | –
